Results reported in PubChem BioAssay AID2549 (National Center for Advancing Translational Sciences (NCATS), 2010).
“And” between values parts separate entries of the source, which are not always exact repeats. Equal entries are not always repeated. Hit rate of the full screen: of about 240,000 compounds, about 1,300 (0.54%) were called active. Inconclusive means that the source gave no clear call. Such entries were picked first, then a sample of the others. Calls follow the shape of the dose curve; as a rule, active = well fitted inhibition curve with a large enough effect; inconclusive = small, poorly fitted or top-dose-only effect; inactive = flat fitted curve, though single readings scatter. Potencies beside an inconclusive call are fits to weak or partial responses and may not hold up. A structure can be active in one record and inactive in another. Where a SMILES comes first, the peptide text is derived from it. [ ]: non-standard residue; d: D form. The star is where a group is joined. Fmoc = O=C(OCC1c2ccccc2-c2ccccc21)*; Cha = N[C@@H](CC1CCCCC1)C(=O)O; AMC = Cc1cc(=O)oc2cc(N*)ccc12

By UniProt entry, the sequences of proteins in these tests, tags left out. Where a name states a change or a piece, a line headed by the entry shows the natural chain unless it says otherwise.
UniProt P46063: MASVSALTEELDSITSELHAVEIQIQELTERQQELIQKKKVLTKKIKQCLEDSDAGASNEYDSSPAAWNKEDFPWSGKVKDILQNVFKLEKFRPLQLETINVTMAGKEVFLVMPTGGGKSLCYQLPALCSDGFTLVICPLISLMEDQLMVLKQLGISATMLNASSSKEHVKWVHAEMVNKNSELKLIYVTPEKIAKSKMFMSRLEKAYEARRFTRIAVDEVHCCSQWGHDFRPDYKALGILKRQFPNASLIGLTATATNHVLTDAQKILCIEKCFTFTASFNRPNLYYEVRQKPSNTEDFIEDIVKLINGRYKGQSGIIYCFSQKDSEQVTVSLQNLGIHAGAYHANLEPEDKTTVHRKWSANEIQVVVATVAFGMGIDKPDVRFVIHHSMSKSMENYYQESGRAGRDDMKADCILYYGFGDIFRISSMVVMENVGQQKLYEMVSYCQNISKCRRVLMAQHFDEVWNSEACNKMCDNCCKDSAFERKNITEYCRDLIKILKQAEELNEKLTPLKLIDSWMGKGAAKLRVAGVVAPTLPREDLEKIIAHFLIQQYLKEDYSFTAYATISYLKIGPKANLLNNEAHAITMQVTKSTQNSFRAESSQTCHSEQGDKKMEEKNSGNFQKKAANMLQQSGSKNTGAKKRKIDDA

What follows are molecules tested against ATP-dependent DNA helicase Q1 (Homo sapiens) (UniProt P46063) (assay: qHTS Assay for Inhibitors of RecQ-Like Dna Helicase 1 (RECQ1)). Settings: RECQ1 DNA unwinding, red fluorescence kinetic read; activity, negative = inhibition: at 57.3 µM (top of the series); series mostly up to 57.3 µM.
Outline: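 50 nM RECQ1T1 preincubated 15 min with compound in Tris pH 8.0 buffer with MgCl2, DTT, Tween-20 and 2.5 ug/ml poly(dI-dC); started with 200 nM TAMRA/BHQ-2 forked duplex and 2 mM ATP. Unwinding read as fluorescence (525/598 nm), two reads 2 h apart.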
Also: nearly all actives have a fitted effect of over 30% in size.
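For activity, negative = inhibition in this document: plate controls were vehicle for no effect and no enzyme for full effect.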
Potency is read from the fitted curve at half-maximal effect.

SMILES | Potency | activity, negative = inhibition | outcome
COC(=O)c1cn(C)c2ccc(S(=O)(=O)N3CCCC3)cc2c1=O | inconclusive: 31.6 µM [inhibitor, single point] | – | –
Cc1cccc(Nc2ncc3c(n2)CC(c2ccco2)CC3=O)c1 (configuration not stated) | inconclusive: 0.562 µM [inhibitor, full curve, poor fit] | – | –
CC[n+]1c(/C=C/C=C/N(C(C)=O)c2ccccc2)sc2ccccc21 | – | inactive: -2.52% | –
O=C1C(SCCO)=C(SCCO)C(=O)c2ccccc21 | inconclusive: 39.8 µM [inhibitor, single point] and inconclusive: 15.8 µM [inhibitor, partial curve, poor fit] | – | –
CC(=O)c1c(C(C)=O)c(C)n(-c2ccc(N)c(C)c2)c1C | – | inactive: -9.24% | –
O=C(CSc1nc(NS(=O)(=O)c2ccccc2)cc(=O)[nH]1)Nc1ccc(F)cc1 | inconclusive: 25.1 µM [inhibitor, single point] | – | –
COc1cc(/C=C/C(=O)CC(=O)/C=C/c2ccc(O)c(OC)c2)ccc1O | inactive | – | –
CCC(C(=O)OCC(=O)Nc1ccc(C(N)=O)cc1)c1ccccc1 (configuration not stated) | inconclusive: 0.794 µM [inhibitor, single point] | – | –
CCNc1ccc(Br)cc(C(=O)/C=C/c2ccc(Cl)cc2)c1=O | active: 31.6 µM | – | –
COc1cc(C=O)ccc1OCCOCCOc1c(C)cc(Cl)cc1Cl | inconclusive: 25.1 µM [inhibitor, single point] | – | –
CC(C)(C)NS(=O)(=O)c1cc(C(=O)Nc2sccc2C#N)ccc1Cl | inconclusive: 22.4 µM [inhibitor, single point] | – | –
CC1(C)CCC2=C(O1)c1ccccc1C(=O)C2=O | active: 17.8 µM | – | –
O=C(Nc1nccs1)c1cc2sccc2n1Cc1ccc(F)cc1 | inconclusive: 4.47 µM [inhibitor, full curve, poor fit] | – | –
CC[n+]1ccc2cc(OC)c(OC)cc2c1Cc1ccc(OC)c(OC)c1 | – | – | inactive
Cc1cc(=O)oc2cc(NC(=O)[C@H](CCCCN)NC(=O)[C@H](CC3CCCCC3)NC(=O)OCC3c4ccccc4-c4ccccc43)ccc12 (Fmoc-[Cha]-Lys-{AMC}) | inconclusive: 39.8 µM [inhibitor, single point] | – | –
Cc1ccc(SCc2cc(=O)c3c(=O)n(-c4ccccc4)[nH]c3[nH]2)cc1 | inconclusive: 35.5 µM [inhibitor, single point] | – | –
CCN(CC)S(=O)(=O)c1ccc2c(c1)nc(CCC(=O)Nc1ccc3c(c1)OCO3)n2CC | inconclusive: 28.2 µM [inhibitor, partial curve] | – | –
O=C(O)c1c2c(nc3ccccc13)/C(=C/c1ccc(O)cc1)CC2 | active: 28.2 µM | – | –
O=C(CSc1ccc(F)cc1)N1CCN(S(=O)(=O)c2ccccc2)CC1 | – | inactive: -1.39% | –
CCC(=O)NC1CCc2cccc(OC)c2C1 (configuration not stated) | – | – | inactive
CCCc1[nH][nH]c(=O)c1C(c1ccc(Br)cc1)C(C#N)C#N (configuration not stated) | – | inactive: 0.564% | –
Cc1c(C2=CCN(S(=O)(=O)c3ccc(Br)cc3)CC2)c2ccccc2n1C | active: 35.5 µM | – | –
COc1ccc(-n2c(O)c(/C=N/NS(=O)(=O)c3cc(C)ccc3C)c3ccccc3c2=O)cc1OC | active: 14.1 µM | – | –
Cc1nn(-c2ccccc2)c(Cl)c1/C=C/C(=O)c1ccccc1 | inconclusive: 3.55 µM [inhibitor, full curve] | – | –

Structural class: the entries above containing a thiophene ring, fused or not.
SMILES | Potency | activity, negative = inhibition | outcome
CC(C)(C)NS(=O)(=O)c1cc(C(=O)Nc2sccc2C#N)ccc1Cl | inconclusive: 22.4 µM [inhibitor, single point] | – | –
O=C(Nc1nccs1)c1cc2sccc2n1Cc1ccc(F)cc1 | inconclusive: 4.47 µM [inhibitor, full curve, poor fit] | – | –

Next part:

SMILES | Potency | activity, negative = inhibition | outcome
CCOC(=O)C1CCc2sc(N)c(C#N)c21 (configuration not stated) | active: 25.1 µM | – | –
COc1ccc(CCNS(=O)(=O)c2ccc(C(=O)NCc3ccco3)cc2)cc1OC | inconclusive: 39.8 µM [inhibitor, single point] | – | –
CCc1ccc(C(=O)N2CCC(c3nc4ccccc4s3)CC2)cc1 | inconclusive: 7.08 µM [inhibitor, single point] | – | –
O=C1/C(=C/C=C/c2ccco2)SC(=S)N1c1ccc(O)cc1 | active: 11.2 µM | – | –
Cn1c(=O)c2cc(S(=O)(=O)NC(C(=O)Nc3cccnc3)c3ccccc3)ccc2n(C)c1=O (configuration not stated) | inconclusive: 8.91 µM [inhibitor, single point] | – | –
CC(O)C#C[Si](C)(C)c1ccccc1 (configuration not stated) | – | inactive: 4.47% | –
CSc1nc2ccccc2cc1/C=C(\C#N)c1cccc(Cl)c1 | active: 12.6 µM | – | –
Cn1cccc1CC(=O)N/N=C/c1ccco1 | inconclusive: 35.5 µM [inhibitor, single point] | – | –
Cc1sc2nc(C3CC3)nc(SCC(=O)N3CCCc4ccccc43)c2c1C | inconclusive: 39.8 µM [inhibitor, single point] | – | –
Cc1ccc(NS(=O)(=O)c2cc(C(=O)N3CCc4ccccc4C3)ccc2Cl)cc1 | inconclusive: 25.1 µM [inhibitor, single point] | – | –
CC1CCC2(CC1)NC(=O)N(CC(=O)Nc1sc3c(c1C(N)=O)CCC3)C2=O (configuration not stated) | active: 31.6 µM | – | –
O=C1C2=CC[C@@H]3C(=O)N(c4ccc(F)cc4F)C(=O)[C@H]3[C@H]2[C@H](O)[C@H]2O[C@H]12 | – | inactive: -4.32% [at 11.5 µM] | –
C=CCn1c(SCC(=O)OC)nc2sc3c(c2c1=O)CCN(C)C3 | inconclusive: 28.2 µM [inhibitor, single point] | – | –
O=C(NNC(=O)c1ccc(Br)o1)c1ccc(NC(=O)c2ccccc2)cc1 | – | – | inactive
Cc1ccc(CSc2nnc(-c3ccc(NS(=O)(=O)c4ccccc4)cc3)o2)cc1 | inconclusive: 25.1 µM [inhibitor, partial curve, poor fit] | – | –
O=C(N/N=C/c1cccc([N+](=O)[O-])c1O)c1cccs1 | – | inactive: -3.69% | –
Cc1[nH][nH]c(=O)c1C(c1ccc(-c2ccc(Cl)cc2Cl)o1)c1c(C)[nH][nH]c1=O | inconclusive: 39.8 µM [inhibitor, single point] | – | –
Cc1ccc(-n2ncc3c(N4CCCC(C)C4)ncnc32)c(C)c1 (configuration not stated) | inconclusive: 2.82 µM [inhibitor, single point] | – | –
CC(=O)OC1CC(C)OC(C)O1 (configuration not stated) | – | inactive: -4.83% | –
N#CCC(=O)c1sccc1-n1cccc1 | inconclusive: 39.8 µM [inhibitor, single point] | – | –
COC(=O)Cn1cc(/C=N/NC(=O)COc2cccc3cccnc23)c2ccccc21 | inconclusive: 25.1 µM [inhibitor, partial curve] | – | –
O=C(/C=C/c1ccccc1)NCCc1ccccc1 | active: 17.8 µM | – | –
CCOC(=O)C1=C(C)NC2=C(C(=O)CC(C)(C)C2)C1c1ccc(N(C)C)cc1 (configuration not stated) | inconclusive: 1.26 µM [inhibitor, full curve, poor fit] | – | –
COc1cc(/C=C(\C#N)c2nc3ccccc3[nH]2)cc(OC)c1O | inconclusive: 35.5 µM [inhibitor, single point] | – | –

SMILES | Potency | activity, negative = inhibition | outcome
CC(C)CCNC(=O)c1onc(CSc2ccc(F)c(F)c2)c1C(=O)NCCC(C)C | inconclusive: 7.08 µM [inhibitor, single point] | – | –
Cc1cc(=O)oc2cc(OCC(=O)NCc3ccncc3)ccc12 | inconclusive: 12.6 µM [inhibitor, partial curve] | – | –
Cc1nnc(SCC(=O)NCc2ccc3c(c2)OCO3)n1C | inconclusive: 0.199 µM [inhibitor, full curve] | – | –
CCc1c(C)nc(N)n2c(SCC(=O)Nc3ccccc3)nnc12 | inconclusive: 0.891 µM [inhibitor, single point] | – | –
CC(C)(C)NCC(O)COc1cccc2c1C[C@H](O)[C@H](O)C2 (some centres not stated) | inconclusive: 0.126 µM [inhibitor, full curve, poor fit] | – | –
C=C(C)C(=O)OCCCCCCOc1ccc(C(=O)O)cc1 | – | inactive: -3.5% | –
COc1ccccc1Oc1cc(C#N)c(C#N)cc1-n1nnc2ccccc21 | inconclusive: 5.62 µM [inhibitor, full curve] | – | –
CCn1c(C)c(C2=CCN(S(=O)(=O)c3ccccc3)CC2)c2ccccc21 | active: 25.1 µM | – | –
COc1ccc(N2Cc3cccc(C(=O)O)c3C2=O)cc1 | active: 14.1 µM | – | –
CCOC(=O)c1cc(-c2ccc(/C=C3/C(=O)NC(=O)C(C#N)=C3C)o2)ccc1Cl | inconclusive: 39.8 µM [inhibitor, single point] | – | –
COC(=O)C1=C(C)N(C)C(=S)N(C)C1c1cccc(Br)c1 (configuration not stated) | inconclusive: 35.5 µM [inhibitor, single point] | – | –
CC(=O)OC1C(N2CCCCC2)c2c(ccc(/C=C/C(=O)N3CCCCC3)c2O)OC1(C)C (configuration not stated) | – | inactive: 5.31% | –
Cc1nn(CCc2nc(-c3ccco3)cs2)c2[nH]c(=O)cc(C(F)(F)F)c12 | active: 14.1 µM | – | –
O=C(CCC(=O)c1ccc(Br)cc1)Nc1cccc(C(F)(F)F)c1 | inconclusive: 5.62 µM [inhibitor, full curve] | – | –
CCn1c2ccccc2c2cc(NC(=O)COC(=O)c3ccccc3F)ccc21 | – | inactive: 3.36% | –
Nc1ccc(N=Nc2ccccc2)c(N)c1 | – | inactive: -15.3% | –
O=C1CNC(=S)N1CCc1ccc(O)c(O)c1 | – | inactive: -2.18% | –
CCOC(=O)c1c(NS(=O)(=O)c2cccc(OC)c2)sc2c1CCC2 | – | inconclusive: -41.3% [inhibitor] | –
CC(=O)N1N=C(c2ccco2)CC1c1cccs1 (configuration not stated) | inconclusive: 39.8 µM [inhibitor, single point] | – | –
CCCN1C(=O)S/C(=C\c2ccc(N3CCOCC3)o2)C1=O | – | inactive: -3.22% | –
O=S(=O)(/N=C(/Nc1cc(N2CCOCC2)ncn1)c1ccccc1)c1ccccc1 | inconclusive: 14.1 µM [inhibitor, partial curve] | – | –
Oc1cc2c(cc1C(c1ccc(Br)cc1)N1CCCC1)OCO2 (configuration not stated) | – | – | inactive
O=C(COC(=O)c1cccc(Cl)c1Cl)NCCN1C(=O)CSC1=O | inconclusive: 5.01 µM [inhibitor, partial curve, poor fit] | – | –
COc1cc(C2C3=C(CCCC3=O)Nc3c2c(C)nn3-c2cccc(C)c2)cc(OC)c1O (configuration not stated) | inconclusive: 12.6 µM [inhibitor, partial curve] | – | –

Two successive compounds already listed, for reference:
SMILES | Potency | activity, negative = inhibition | outcome
CCn1c2ccccc2c2cc(NC(=O)COC(=O)c3ccccc3F)ccc21 | – | inactive: 3.36% | –
Nc1ccc(N=Nc2ccccc2)c(N)c1 | – | inactive: -15.3% | –
